This is a selection; strong and weak results do not stand in their true shares. For some of these results: At the low end of the ranking the order means little. The list shows a part of the results. For some of these results: The exact form of the protein is not confirmed.
Experiments:
[1] = biological target: HSF1 (UniProt Q00613); assay: DAPPL (digital affinity profiling via proximity ligation, sequencing); details: 10 mM Tris-HCl pH 7.5, 50 mM NaCl, 1 mM DTT, 4% glycerol, room temperature, 30 min; GST-TFs on glutathione beads, 16-mer random dsDNA library, 0.1% …; high values mean tight binding; double strand, one strand shown; scale: fold enrichment (6-mer frequency, TF over GST control)
[2] = biological target: T1, ELF2 (UniProt Q15723); assay: as above; details: 10 mM Tris-HCl pH 7.5, 50 mM NaCl, 1 mM DTT, 4% glycerol, room temperature, 30 min; GST-TFs on glutathione beads, 16-mer random dsDNA library, 0.1% …; high values mean tight binding; double strand, one strand shown; scale: fold enrichment (6-mer frequency, TF over GST control)
T1 sequence: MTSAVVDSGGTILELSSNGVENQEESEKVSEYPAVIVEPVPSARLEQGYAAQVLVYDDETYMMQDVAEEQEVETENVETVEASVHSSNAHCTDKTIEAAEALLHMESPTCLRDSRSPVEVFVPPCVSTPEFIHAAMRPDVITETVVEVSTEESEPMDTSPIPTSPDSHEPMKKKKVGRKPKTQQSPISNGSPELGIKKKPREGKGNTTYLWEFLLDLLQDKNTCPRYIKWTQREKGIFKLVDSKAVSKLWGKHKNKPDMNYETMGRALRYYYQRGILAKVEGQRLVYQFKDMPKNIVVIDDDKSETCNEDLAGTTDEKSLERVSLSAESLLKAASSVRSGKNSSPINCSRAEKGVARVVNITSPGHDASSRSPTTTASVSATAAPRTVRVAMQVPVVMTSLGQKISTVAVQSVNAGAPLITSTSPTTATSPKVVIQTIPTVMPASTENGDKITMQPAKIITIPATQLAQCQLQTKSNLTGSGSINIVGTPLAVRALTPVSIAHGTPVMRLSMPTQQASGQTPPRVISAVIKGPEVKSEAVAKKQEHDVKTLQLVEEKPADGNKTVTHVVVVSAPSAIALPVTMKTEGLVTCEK

Protein sequences, listed by entry. Tags and fused reporters are not part of them. Lines headed by an entry give the natural chain unless they say otherwise; changes in a name come on top.
UniProt Q00613: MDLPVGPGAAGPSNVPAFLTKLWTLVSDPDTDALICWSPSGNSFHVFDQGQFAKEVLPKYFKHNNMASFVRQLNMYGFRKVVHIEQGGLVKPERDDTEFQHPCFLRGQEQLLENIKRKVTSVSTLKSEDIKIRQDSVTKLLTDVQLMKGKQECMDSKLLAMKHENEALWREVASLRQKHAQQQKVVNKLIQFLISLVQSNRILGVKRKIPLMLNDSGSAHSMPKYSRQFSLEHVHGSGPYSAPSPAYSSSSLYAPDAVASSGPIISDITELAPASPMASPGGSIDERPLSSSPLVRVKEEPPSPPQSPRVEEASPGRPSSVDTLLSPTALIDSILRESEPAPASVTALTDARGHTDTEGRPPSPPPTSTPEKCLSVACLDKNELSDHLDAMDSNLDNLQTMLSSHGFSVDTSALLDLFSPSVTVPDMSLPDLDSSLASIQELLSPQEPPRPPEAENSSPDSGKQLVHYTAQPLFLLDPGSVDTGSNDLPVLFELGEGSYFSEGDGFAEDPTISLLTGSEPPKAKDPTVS

Row | Sequence | binding signal [1] | binding signal [2]
1 | CCTTTG | 1.21 | 1.25
2 | CCCCAC | 0.921 | 1.14
3 | CTATGG | 1.17 | 1.17
4 | AGTTAC | 0.731 | 0.971
5 | TGACCG | 1.17 | 1.5
6 | GAACTG | 0.853 | 1.08
7 | TTTTGG | 1.44 | 1.39
8 | ACCCTT | 1.09 | 1.22
9 | CGCTGT | 0.715 | 0.952
10 | CATCCA | 0.969 | 0.951
11 | TTTGTC | 1.11 | 1.25
12 | ACACGG | 0.727 | 1.19
13 | AAGCCT | 1.5 | 1.23
14 | CATGGT | 0.906 | 1.13
15 | TTTTAT | 1.46 | 1.32
16 | TCGCCG | 0.992 | 1.14
17 | ACGTAA | 1.17 | 1.05
18 | CCCCCC | 0.897 | 1.03
19 | CATCCT | 1.12 | 1.67
20 | CTCAGC | 1.1 | 1.22
21 | ACGAAA | 1.44 | 1.15
22 | TCACCC | 0.927 | 1.15
23 | GTTCAG | 0.758 | 0.877
24 | GCCTCT | 1.25 | 1.3

Single records (already shown). Order of values: binding signal [1]	binding signal [2]
CATGGT is listed as 0.906	1.13
GAACTG is listed as 0.853	1.08
TTTTAT is listed as 1.46	1.32
AGTTAC is listed as 0.731	0.971

(further entries)

Row | Sequence | binding signal [1] | binding signal [2]
25 | AGTGTT | 0.955 | 1.13
26 | GACCGA | 0.848 | 0.788
27 | AGGATA | 0.957 | 1.05
28 | TACAGC | 0.932 | 1.04
29 | CAAAGA | 1.1 | 0.916
30 | CAACCT | 0.952 | 1.06
31 | GGTGGT | 0.795 | 0.962
32 | GTCCTC | 0.924 | 1.14
33 | ATTCCT | 1.57 | 1.48
34 | TACAAC | 0.971 | 1.12
35 | CCTAAC | 1.19 | 1.35
36 | ATAAGG | 0.972 | 1.09
37 | ACACCC | 0.898 | 1.11
38 | TATGCC | 1.06 | 1.14
39 | TGTCCG | 0.898 | 1.6
40 | GTGTTA | 0.941 | 0.976
41 | CGATGT | 0.952 | 1.05
42 | CCTGCT | 1.34 | 1.66
43 | GAAGAA | 1.46 | 1.32
44 | CGATCA | 1.22 | 0.984
45 | TGCGTC | 0.71 | 0.957
46 | TGTTGT | 0.946 | 1.08
47 | GCAGCA | 0.754 | 0.927
48 | CCAACG | 0.971 | 1.04

Row | Sequence | binding signal [1] | binding signal [2]
49 | CATGCC | 0.897 | 1.08
50 | ACGCCA | 0.724 | 0.871
51 | AAAGTC | 0.982 | 0.877
52 | CTCGAC | 1.77 | 1.38
53 | GAATGC | 0.985 | 0.94
54 | GTCCTT | 0.953 | 1.25
55 | CTGGTC | 0.972 | 1.14
56 | AGCTGT | 0.937 | 0.922
57 | TTGTTG | 0.998 | 1.08
58 | CCGCTG | 0.76 | 1.01
59 | GGTCTG | 0.791 | 0.949
60 | CAATTT | 1.15 | 1.42
61 | TTGGAT | 1.21 | 0.942
62 | CAATAG | 0.964 | 1.03
63 | AGGTGT | 0.717 | 0.782
64 | GTGCCC | 0.697 | 0.941
65 | AGCCCA | 0.929 | 0.948
66 | ACAAGG | 0.821 | 0.949
67 | GGTTTG | 0.967 | 1.15
68 | TGGTGG | 0.805 | 1.01
69 | TTCAAC | 1.14 | 1.26
70 | GCAGCC | 0.725 | 0.986
71 | GCTACA | 0.94 | 1.16
72 | ATTTAA | 1.62 | 1.2

Row | Sequence | binding signal [1] | binding signal [2]
73 | ACCTTC | 2.87 | 2.01
74 | GACCCA | 0.723 | 0.851
75 | TAGATA | 1.46 | 1.03
76 | CGCCCC | 0.889 | 1.09
77 | CGAACC |  | 1.17
78 | TCAAGA |  | 0.809
79 | GCGTCT |  | 1.05
80 | CACGAT |  | 1.21
81 | ATATCA |  | 1.15
82 | ATTCAT |  | 1.1
83 | ATGCCC |  | 1.26
84 | CCTAAT |  | 1.26
85 | TGTATT |  | 1.33
86 | TAATCA |  | 1.06
87 | TAAATC |  | 1.24
88 | CCCTTA |  | 1.24
89 | TCCGAT |  | 1.31
90 | TGCTGG |  | 1.09
91 | TAAACT |  | 1.16
92 | CCTCGA |  | 1.23
93 | CAATTC |  | 1.36
94 | TTCATG |  | 1.22
95 | ATATCC |  | 3.53
96 | AGACTT |  | 1.11

Row | Sequence | binding signal [1] | binding signal [2]
97 | ATACGA |  | 1.06
98 | TGATTC |  | 1.08
99 | ATGTGC |  | 1.08
100 | TCATGA |  | 0.959
101 | AAGAAG |  | 1.08
102 | GTATCC |  | 2.09
103 | TTCTCT |  | 1.31
104 | CCGTTT |  | 1.5
105 | CATTAA |  | 0.997
106 | TATCAC |  | 1.22
107 | CCTTGA |  | 1.19
108 | AAAAAC |  | 1.27
109 | CACCGA |  | 0.981
110 | GGTACT |  | 1.36
111 | TATAAA |  | 1.24
112 | TAAGAC |  | 0.883
113 | CTAGCG |  | 1.09
114 | ATTACT |  | 1.27
115 | TCTAAC |  | 1.15
116 | CCCCTA |  | 1.1
117 | CCCCAG |  | 0.976
118 | TCCACT |  | 1.46
119 | CCTTCG |  | 1.29
120 | GTTAAA |  | 0.998

Source: publication PMC7862700
